Our source for the MIC values is PMC8467577, “Infection Responsive Smart Delivery of Antibiotics Using Recombinant Spider Silk Nanospheres” (Pharmaceutics, 2021).

≈ marks a conversion by molar mass, not a printed value.

For the experiment, the system named is Staphylococcus aureus (ATCC 49230). Nature of the experiment: Minimum Inhibitory Concentration, microplate method. It counts as cell-based. Particulars: ATCC49230, 24 h, read-out: Minimum Inhibitory Concentration (MIC). How it is done: Antibacterial activity of the nanospheres was tested by calculating the Minimum Inhibitory Concentration (MIC) using the microplate method and Kirby Bauer Zone of Inhibition. Briefly, to determine the MIC, a culture of Staphylococcus aureus (ATCC 49230) was incubated overnight at 37 °C with shaking. The next day, the bacterial cell solution was diluted to 10^7 CFU/mL and different concentrations (ranging from 1 ug/mL to 32 ug/mL) of either the vancomycin-free drug or vancomycin-loaded nanospheres were added to the bacterial solution. Two hundred microliters of this bacterial/vancomycin suspension were seeded in a 96-well plate followed by incubation at 37 °C for 24 h. The optical density of each well was recorded on the microplate reader (Epoch, BioTek, Winooski, VT, USA). Selected concentrations of the particles surrounding the determined MIC were taken and ZOI was conducted by the disc diffusion method. Briefly, 6 mm discs were placed in 96-well plate and 200 µL of drug-loaded particles were added to the wells and the discs were soaked for 24 h. After 24 h, the discs were dried and plated on S. aureus streaked on LB agar plates, and the cleared diameter was measured using digital calipers.

As to `CN[C@H](CC(C)C)C(=O)N[C@H]1C(=O)N[C@@H](CC(N)=O)C(=O)N[C@H]2C(=O)N[C@H]3C(=O)N[C@H](C(=O)N[C@H](C(=O)O)c4cc(O)cc(O)c4-c4cc3ccc4O)[C@H](O)c3ccc(c(Cl)c3)Oc3cc2cc(c3O[C@@H]2O[C@H](CO)[C@@H](O)[C@H](O)[C@H]2O[C@H]2C[C@](C)(N)[C@H](O)[C@H](C)O2)Oc2ccc(cc2Cl)[C@H]1O` [vancomycin-free drug, vancomycin], the MIC was determined as 2 µg/mL (≈ 1.38 µM).
